Assay [1] has as its target U5 snRNP200 (human) (UniProt O75643). Briefly: flow cytometry, PE-conjugated antibody on AML cell lines. (In flow cytometry, cells or beads pass a laser one at a time.)
The target is the same in assay [2]. Briefly: flow cytometry, PE-conjugated antibody on primary AML cells.

Amino acid sequences for entries named in this document (tags omitted).
UniProt O75643: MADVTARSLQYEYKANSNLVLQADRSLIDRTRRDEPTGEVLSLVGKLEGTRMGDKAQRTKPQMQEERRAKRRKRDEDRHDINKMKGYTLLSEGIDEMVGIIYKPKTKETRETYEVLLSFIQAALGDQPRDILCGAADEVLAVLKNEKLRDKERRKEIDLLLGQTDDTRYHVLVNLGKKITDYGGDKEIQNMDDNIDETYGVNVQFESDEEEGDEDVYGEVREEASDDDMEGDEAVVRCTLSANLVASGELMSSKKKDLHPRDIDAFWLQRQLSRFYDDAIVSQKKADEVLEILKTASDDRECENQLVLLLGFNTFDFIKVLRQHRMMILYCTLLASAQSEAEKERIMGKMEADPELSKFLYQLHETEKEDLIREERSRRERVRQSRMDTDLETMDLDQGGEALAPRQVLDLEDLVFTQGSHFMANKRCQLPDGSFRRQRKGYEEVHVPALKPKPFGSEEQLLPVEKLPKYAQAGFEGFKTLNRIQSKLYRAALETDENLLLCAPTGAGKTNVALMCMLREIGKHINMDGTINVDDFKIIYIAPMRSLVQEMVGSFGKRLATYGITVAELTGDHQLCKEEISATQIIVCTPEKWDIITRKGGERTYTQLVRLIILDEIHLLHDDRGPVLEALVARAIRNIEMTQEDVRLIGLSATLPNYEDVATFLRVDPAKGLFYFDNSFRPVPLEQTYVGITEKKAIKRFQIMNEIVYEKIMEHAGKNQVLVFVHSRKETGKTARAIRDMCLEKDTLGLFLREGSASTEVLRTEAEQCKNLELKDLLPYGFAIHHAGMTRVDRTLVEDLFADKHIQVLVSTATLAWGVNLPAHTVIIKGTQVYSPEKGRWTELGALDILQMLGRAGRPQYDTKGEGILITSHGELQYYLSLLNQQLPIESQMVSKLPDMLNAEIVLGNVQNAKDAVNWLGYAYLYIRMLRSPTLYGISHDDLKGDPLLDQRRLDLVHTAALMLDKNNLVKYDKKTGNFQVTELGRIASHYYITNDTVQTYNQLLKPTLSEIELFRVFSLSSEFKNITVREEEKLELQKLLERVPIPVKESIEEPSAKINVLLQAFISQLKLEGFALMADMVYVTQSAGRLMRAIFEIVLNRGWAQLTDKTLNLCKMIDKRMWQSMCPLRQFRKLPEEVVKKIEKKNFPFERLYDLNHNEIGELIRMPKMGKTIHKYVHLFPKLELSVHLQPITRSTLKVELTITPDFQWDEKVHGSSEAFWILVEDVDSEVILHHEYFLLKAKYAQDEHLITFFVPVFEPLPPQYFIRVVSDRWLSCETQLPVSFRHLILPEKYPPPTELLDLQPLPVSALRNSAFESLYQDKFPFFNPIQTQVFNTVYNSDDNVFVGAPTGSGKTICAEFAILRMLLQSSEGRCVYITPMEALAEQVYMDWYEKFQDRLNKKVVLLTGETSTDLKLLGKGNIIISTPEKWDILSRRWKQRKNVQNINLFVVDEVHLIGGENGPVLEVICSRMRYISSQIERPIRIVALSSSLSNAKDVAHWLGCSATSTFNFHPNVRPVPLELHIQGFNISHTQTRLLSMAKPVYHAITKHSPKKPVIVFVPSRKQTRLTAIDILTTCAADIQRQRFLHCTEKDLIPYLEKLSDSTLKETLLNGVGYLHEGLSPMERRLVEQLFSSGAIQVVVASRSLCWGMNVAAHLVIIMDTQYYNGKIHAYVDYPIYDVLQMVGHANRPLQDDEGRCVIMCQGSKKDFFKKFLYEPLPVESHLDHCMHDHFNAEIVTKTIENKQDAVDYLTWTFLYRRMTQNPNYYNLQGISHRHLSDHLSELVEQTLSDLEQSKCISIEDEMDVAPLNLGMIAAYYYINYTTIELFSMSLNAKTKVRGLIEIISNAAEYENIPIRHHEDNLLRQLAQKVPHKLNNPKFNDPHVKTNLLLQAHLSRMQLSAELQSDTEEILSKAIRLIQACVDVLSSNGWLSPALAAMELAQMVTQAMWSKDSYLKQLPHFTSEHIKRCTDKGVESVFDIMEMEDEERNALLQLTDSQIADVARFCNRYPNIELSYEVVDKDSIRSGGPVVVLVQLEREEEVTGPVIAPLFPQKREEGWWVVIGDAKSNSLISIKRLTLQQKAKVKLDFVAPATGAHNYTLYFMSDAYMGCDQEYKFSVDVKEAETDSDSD

These are yes or no findings as the source states them, for the method shown. Some entries that bind do so weakly or less than the wild type.

B1: anti-U5 snRNP200 antibody clone 23 (antibody, V domains shown)
VH: QVQLQQWGAGLLKPSETLSLTCAVYGGSFSGYYWSWIRQPPGKGLEWIGEINHSGSTNYNPSLKSRVTISVDTSKNQFSLKLSSVTAADTAVYYCARGRSTSPLDYYYYYMDVWAKGTTVTVS
VL: SSELTQDPAVSVALGQTVRITCQGDFLRSYYASWYQQKPGQAPVLVIFGKNKRPSGIPDRFSGSSSGNTASLTITGAQAEDEADYYCNSRDRSGNHLVFGGGTKLTVL
B1: the binding entry in assay [1] and in assay [2] was “binds” each time.

B2: anti-U5 snRNP200 antibody clone 37 (antibody, V domains shown)
VH: QVQLVESGGGVVQPGRSLRLSCAASGFTFSTYGMHWVRQAPGKGLEWVAVIWYDGSNTYYADSVKGRFTISRDNSKNTLYLQIKSLRAEDTAVYYCARGRGYSAQGNRNRAYYFDYWGQGTLVTVS
VL: EIVMTQSPATLSVSPGERVILSCRASQSVSSNLAWYQQKPGQPPRLLIYGAFTRVTGVPARFSGSGSGTEFTLTISSLQSEDFAVYYCQQYNDRPPYTFGQGTKLEIKR
For the molecule B2, the binding result in assay [1] and in assay [2] was “binds” in each case.
